# The list shows a part of the results.
# B1: TAL6-4LysM (Trichoderma atroviride) (protein)
# chain: AADSIPSISPTGIITPTPTQSGMVSNCNKFYDVHSNDGCSAIASSQHVDLSSLYKWNPAIKTDCSGLQASVYVCIGILTTSMSTTSKLPTTTSKPSTTSKPPTGITTPTPTQSGMVKNCNKFYDVHSGDGCSAIASSQKVNLSSFYLWNPAVKTDCSGLQASVFVCIGTLTTSMSTTTSKLPTTTSKPSTTSKPPTGIITPTPTQNGMVKNCNKFYDVHSGDGCSAIASSQKVNLSSFYLWNPAVKTDCSGLQASVFVCVGTATTTTAAGITTPTPTQSGMVSGCNKFYDVHAGDGCSAIASSQKIALSSLYKWNPAVKTDCSGLQASVYICIGVGNAAAARVTGALEQKLISEEDLNSAVDHHHHHH
# What was measured:
# Assay in all cases: glycan array binding signal (z-score within array); higher = stronger binding
# Conditions in all cases: glycan notation: IUPAC condensed, linker removed
# [1] = biological target: Fuc(a1-2)Gal6S(b1-3)GlcNAc6S
# Method in brief: (§1)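 Columns mapping to the same glycan were averaged after glycan names were converted to IUPAC-condensed notation. The data come from 3228 arrays in the Consortium for Functional Glycomics database, limited to those with an available protein sequence. Binding is reported as a within-array Z-score averaged across arrays of one protein sequence and across linkers.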
# Fuc(a1-2)Gal6S(b1-4)Glc = biological target: Fuc(a1-2)Gal6S(b1-4)Glc
# Method in brief: as §1
# [2] = biological target: Fuc(a1-2)Gal6S(b1-4)Glc6S
# Method in brief: as §1
# Fuc(a1-2)[Gal(a1-3)]Gal = biological target: Fuc(a1-2)[Gal(a1-3)]Gal
# Method in brief: as §1
# [3] = biological target: Fuc(a1-2)[Gal(a1-3)]Gal(b1-3)GalNAc
# Method in brief: as §1
# [4] = biological target: Fuc(a1-2)[Gal(a1-3)]Gal(b1-3)GalNAc(b1-3)Gal(a1-4)Gal(b1-4)Glc
# Method in brief: as §1
# [5] = biological target: Fuc(a1-2)[Gal(a1-3)]Gal(b1-3)GlcNAc
# Method in brief: as §1
# [6] = biological target: Fuc(a1-2)[Gal(a1-3)]Gal(b1-3)GlcNAc(b1-2)Man(a1-3)[Fuc(a1-2)[Gal(a1-3)]Gal(b1-3)GlcNAc(b1-2)Man(a1-6)]Man(b1-4)GlcNAc(b1-4)GlcNAc
# Method in brief: as §1
# [7] = biological target: Fuc(a1-2)[Gal(a1-3)]Gal(b1-3)GlcNAc(b1-2)Man(a1-3)[Fuc(a1-2)[Gal(a1-3)]Gal(b1-3)GlcNAc(b1-2)Man(a1-6)]Man(b1-4)GlcNAc(b1-4)[Fuc(a1-6)]GlcNAc
# Method in brief: as §1
# [8] = biological target: Fuc(a1-2)[Gal(a1-3)]Gal(b1-3)GlcNAc(b1-3)GalNAc
# Method in brief: as §1
# [9] = biological target: Fuc(a1-2)[Gal(a1-3)]Gal(b1-3)GlcNAc(b1-6)GalNAc
# Method in brief: as §1
# [10] = biological target: Fuc(a1-2)[Gal(a1-3)]Gal(b1-4)Glc
# Method in brief: as §1
# [11] = biological target: Fuc(a1-2)[Gal(a1-3)]Gal(b1-4)GlcNAc
# Method in brief: as §1
# [12] = biological target: Fuc(a1-2)[Gal(a1-3)]Gal(b1-4)GlcNAc(b1-2)Man
# Method in brief: as §1
# [13] = biological target: Fuc(a1-2)[Gal(a1-3)]Gal(b1-4)GlcNAc(b1-2)Man(a1-3)[Fuc(a1-2)[Gal(a1-3)]Gal(b1-4)GlcNAc(b1-2)Man(a1-6)]Man(b1-4)GlcNAc(b1-4)GlcNAc
# Method in brief: as §1
# [14] = biological target: Fuc(a1-2)[Gal(a1-3)]Gal(b1-4)GlcNAc(b1-2)Man(a1-3)[Fuc(a1-2)[Gal(a1-3)]Gal(b1-4)GlcNAc(b1-2)Man(a1-6)]Man(b1-4)GlcNAc(b1-4)[Fuc(a1-6)]GlcNAc
# Method in brief: as §1
# [15] = biological target: Fuc(a1-2)[Gal(a1-3)]Gal(b1-4)GlcNAc(b1-3)GalNAc
# Method in brief: as §1
# [16] = biological target: Fuc(a1-2)[Gal(a1-3)]Gal(b1-4)GlcNAc(b1-3)[Fuc(a1-2)[Gal(a1-3)]Gal(b1-4)GlcNAc(b1-6)]GalNAc
# Method in brief: as §1
# [17] = biological target: Fuc(a1-2)[Gal(a1-3)]Gal(b1-4)GlcNAc(b1-6)GalNAc
# Method in brief: as §1
# [18] = biological target: Fuc(a1-2)[Gal(a1-3)]Gal(b1-4)[Fuc(a1-3)]Glc
# Method in brief: as §1
# [19] = biological target: Fuc(a1-2)[Gal(a1-3)]Gal(b1-4)[Fuc(a1-3)]GlcNAc
# Method in brief: as §1
# [20] = biological target: Fuc(a1-2)[Gal(a1-3)]Gal(b1-4)[Fuc(a1-3)]GlcNAc(b1-3)GalNAc
# Method in brief: as §1
# [21] = biological target: Fuc(a1-2)[Gal(a1-4)]Gal(b1-4)GlcNAc
# Method in brief: as §1
# [22] = biological target: Fuc(a1-2)[GalNAc(a1-3)]Gal
# Method in brief: as §1
# [23] = biological target: Fuc(a1-2)[GalNAc(a1-3)]Gal(b1-3)GalNAc(a1-3)[Fuc(a1-2)]Gal(b1-4)GlcNAc
# Method in brief: as §1
# [24] = biological target: Fuc(a1-2)[GalNAc(a1-3)]Gal(b1-3)GalNAc(b1-3)Gal(a1-4)Gal(b1-4)Glc
# Method in brief: as §1
# [25] = biological target: Fuc(a1-2)[GalNAc(a1-3)]Gal(b1-3)GlcNAc
# Method in brief: as §1
# [26] = biological target: Fuc(a1-2)[GalNAc(a1-3)]Gal(b1-3)GlcNAc(b1-2)Man(a1-3)[Fuc(a1-2)[GalNAc(a1-3)]Gal(b1-3)GlcNAc(b1-2)Man(a1-6)]Man(b1-4)GlcNAc(b1-4)GlcNAc
# Method in brief: as §1
# [27] = biological target: Fuc(a1-2)[GalNAc(a1-3)]Gal(b1-3)GlcNAc(b1-2)Man(a1-3)[Fuc(a1-2)[GalNAc(a1-3)]Gal(b1-3)GlcNAc(b1-2)Man(a1-6)]Man(b1-4)GlcNAc(b1-4)[Fuc(a1-6)]GlcNAc
# Method in brief: as §1
# [28] = biological target: Fuc(a1-2)[GalNAc(a1-3)]Gal(b1-3)GlcNAc(b1-3)GalNAc
# Method in brief: as §1
# [29] = biological target: Fuc(a1-2)[GalNAc(a1-3)]Gal(b1-3)GlcNAc(b1-6)GalNAc
# Method in brief: as §1
# [30] = biological target: Fuc(a1-2)[GalNAc(a1-3)]Gal(b1-4)Glc
# Method in brief: as §1
# [31] = biological target: Fuc(a1-2)[GalNAc(a1-3)]Gal(b1-4)GlcNAc
# Method in brief: as §1
# [32] = biological target: Fuc(a1-2)[GalNAc(a1-3)]Gal(b1-4)GlcNAc(b1-2)Man
# Method in brief: as §1
# [33] = biological target: Fuc(a1-2)[GalNAc(a1-3)]Gal(b1-4)GlcNAc(b1-2)Man(a1-3)[Fuc(a1-2)[GalNAc(a1-3)]Gal(b1-4)GlcNAc(b1-2)Man(a1-6)]Man(b1-4)GlcNAc(b1-4)GlcNAc
# Method in brief: as §1
# [34] = biological target: Fuc(a1-2)[GalNAc(a1-3)]Gal(b1-4)GlcNAc(b1-2)Man(a1-3)[Fuc(a1-2)[GalNAc(a1-3)]Gal(b1-4)GlcNAc(b1-2)Man(a1-6)]Man(b1-4)GlcNAc(b1-4)[Fuc(a1-6)]GlcNAc
# Method in brief: as §1
# [35] = biological target: Fuc(a1-2)[GalNAc(a1-3)]Gal(b1-4)GlcNAc(b1-3)Gal(b1-4)GlcNAc
# Method in brief: as §1
# [36] = biological target: Fuc(a1-2)[GalNAc(a1-3)]Gal(b1-4)GlcNAc(b1-3)Gal(b1-4)GlcNAc(b1-3)Gal(b1-4)GlcNAc
# Method in brief: as §1
# [37] = biological target: Fuc(a1-2)[GalNAc(a1-3)]Gal(b1-4)GlcNAc(b1-3)GalNAc
# Method in brief: as §1
# [38] = biological target: Fuc(a1-2)[GalNAc(a1-3)]Gal(b1-4)GlcNAc(b1-3)[Fuc(a1-2)[GalNAc(a1-3)]Gal(b1-4)GlcNAc(b1-6)]GalNAc
# Method in brief: as §1
# [39] = biological target: Fuc(a1-2)[GalNAc(a1-3)]Gal(b1-4)GlcNAc(b1-6)GalNAc
# Method in brief: as §1
# [40] = biological target: Fuc(a1-2)[GalNAc(a1-3)]Gal(b1-4)[Fuc(a1-3)]GlcNAc
# Method in brief: as §1
# [41] = biological target: Fuc(a1-2)[GalNAc(a1-3)]Gal(b1-4)[Fuc(a1-3)]GlcNAc(b1-3)GalNAc
# Method in brief: as §1
# [42] = biological target: Fuc(a1-2)[GalNAc(a1-4)]Gal(b1-4)GlcNAc
# Method in brief: as §1
# [43] = biological target: Fuc(a1-2)[GalNAc(b1-3)]Gal
# Method in brief: as §1
binder,measurement,setting,value
B1,glycan array binding signal (z-score),[1],-0.084
same,glycan array binding signal (z-score),Fuc(a1-2)Gal6S(b1-4)Glc,-0.202
same,glycan array binding signal (z-score),[2],-0.234
same,glycan array binding signal (z-score),Fuc(a1-2)[Gal(a1-3)]Gal,0.228
same,glycan array binding signal (z-score),[3],-0.474
same,glycan array binding signal (z-score),[4],-0.13
same,glycan array binding signal (z-score),[5],-0.6
same,glycan array binding signal (z-score),[6],-0.336
same,glycan array binding signal (z-score),[7],1.16
same,glycan array binding signal (z-score),[8],-1.31
same,glycan array binding signal (z-score),[9],-0.942
same,glycan array binding signal (z-score),[10],1.5
same,glycan array binding signal (z-score),[11],-0.335
same,glycan array binding signal (z-score),[12],-0.251
same,glycan array binding signal (z-score),[13],1.01
same,glycan array binding signal (z-score),[14],-0.859
same,glycan array binding signal (z-score),[15],-1.98
same,glycan array binding signal (z-score),[16],-0.676
same,glycan array binding signal (z-score),[17],0.471
same,glycan array binding signal (z-score),[18],0.037
same,glycan array binding signal (z-score),[19],0.469
same,glycan array binding signal (z-score),[20],-1.81
same,glycan array binding signal (z-score),[21],2.32
same,glycan array binding signal (z-score),[22],0.2
same,glycan array binding signal (z-score),[23],-0.505
same,glycan array binding signal (z-score),[24],0.728
same,glycan array binding signal (z-score),[25],0.026
same,glycan array binding signal (z-score),[26],0.321
same,glycan array binding signal (z-score),[27],-1.4
same,glycan array binding signal (z-score),[28],0.335
same,glycan array binding signal (z-score),[29],-1.02
same,glycan array binding signal (z-score),[30],-0.621
same,glycan array binding signal (z-score),[31],0.034
same,glycan array binding signal (z-score),[32],1.86
same,glycan array binding signal (z-score),[33],-0.316
same,glycan array binding signal (z-score),[34],0.55
same,glycan array binding signal (z-score),[35],-0.014
same,glycan array binding signal (z-score),[36],-0.51
same,glycan array binding signal (z-score),[37],-0.418
same,glycan array binding signal (z-score),[38],-0.157
same,glycan array binding signal (z-score),[39],-0.55
same,glycan array binding signal (z-score),[40],-0.162
same,glycan array binding signal (z-score),[41],-0.732
same,glycan array binding signal (z-score),[42],-0.856
same,glycan array binding signal (z-score),[43],-0.491

# Another view of part of the listing above.
binder	measurement	setting	value
B1	glycan array binding signal (z-score)	[17]	0.471
same	glycan array binding signal (z-score)	[18]	0.037
same	glycan array binding signal (z-score)	[19]	0.469

# Reference: the supplement of paper PMC8728848
